Source: PubChem BioAssay AID248 (DTP/NCI, 2004)
The list shows only some results of the screen, not a fair sample: it is rich in T/C values a quarter to a half above the control, in often repeated tests (any T/C) and in doses without a T/C. Other doses and runs of a compound stand elsewhere. T/C gives the treated animals as a percentage of the vehicle group. Some entries give survivors of the animals treated and no T/C: the source files T/C as zero there, which appears to mark a toxic dose or a test without result, not a measured value. Some doses without a T/C left all or most animals alive at the check, yet need not have been tolerated: survival well below the control is almost never listed, so the zero probably covers shortened survival too. Survivors were counted at the toxicity check, usually on the fifth day, unless a day is given; later deaths do not show. Schedule codes are those of the source, taken here to give the interval after Q, in days (D) or hours (H), and the number of doses after X. Some schedule codes hold Z or #, which are not explained here. Some entries hold several experiments; their values stand side by side, smallest first. For survival time, the PubChem record calls one and a half times the control and up active, and a quarter to a half above the control has no call in these data; cut-offs in other NCI protocols can differ. Some T/C values are followed by the survivors on the day toxicity was checked, most often the fifth; where none is given, no animal had died by that day.

Tested on: L1210 leukemia ip in BDF1 mice, survival T/C
Test: NCI In Vivo Anticancer Drug Screen. Data for tumor model L1210 Leukemia (intraperitoneal) in B6D2F1 (BDF1) mice
Settings: higher T/C = longer survival
[1] = T/C endpoint: mean survival time, dose: 500.0 mg/kg/injection, schedule: Q01DX005 (ip), vehicle: clinical formulation
[2] = T/C endpoint: mean survival time, dose: 1008.0 mg/kg/injection, schedule: Q01DX001 (ip), vehicle: carboxymethylcellulose (CMC)

Question: Which T/C (T/C endpoint: mean survival time, dose: 418.0 mg/kg/injection, schedule: Q01DX001 (ip), vehicle: carboxymethylcellulose (CMC)) does the source give for `CN(C)/N=N/c1nc[nH]c1C(N)=O` here?
Answer: 125 % of control [9 of 10 alive]

Question: What about the T/C (T/C endpoint: mean survival time, dose: 450.0 mg/kg/injection, schedule: Q01DX001 (ip), vehicle: carboxymethylcellulose (CMC), evaluated on day 5) of the same molecule?
Answer: 108 and 138 % of control

Question: And the T/C (T/C endpoint: mean survival time, dose: 450.0 mg/kg/injection, schedule: Q01DX001 (ip), vehicle: carboxymethylcellulose (CMC), evaluated on day 45)?
Answer: 109 and 138 % of control

Question: What about the survivor count (T/C endpoint: mean survival time, dose: 450.0 mg/kg/injection, schedule: Q01DX Z (ip), vehicle: carboxymethylcellulose (CMC)) of the same molecule?
Answer: 0 of 6

Question: And the T/C (T/C endpoint: mean survival time, dose: 464.0 mg/kg/injection, schedule: Q04DX002 (ip), vehicle: carboxymethylcellulose (CMC))?
Answer: 147, 148, 155, 164 % of control

Question: What about the T/C (T/C endpoint: mean survival time, dose: 500.0 mg/kg/injection, schedule: Q01DX001 (ip), vehicle: carboxymethylcellulose (CMC)) of the same molecule?
Answer: 138 % of control

Question: And the T/C (T/C endpoint: mean survival time, dose: 500.0 mg/kg/injection, schedule: Q01DX001 (ip), vehicle: saline with Tween-80)?
Answer: 132 % of control [8 of 10 alive]

Question: What about the T/C [1] of the same molecule?
Answer: 106 % of control

Question: And the survivor count [1]?
Answer: 0 of 6 and 1 of 6

Question: And the survivor count (T/C endpoint: mean survival time, dose: 512.0 mg/kg/injection, schedule: Q01DX005 (ip), vehicle: water)?
Answer: 9 of 9

Question: And the T/C (T/C endpoint: mean survival time, dose: 600.0 mg/kg/injection, schedule: Q01DX001 (ip), vehicle: carboxymethylcellulose (CMC))?
Answer: 143 % of control

Question: And the survivor count (T/C endpoint: mean survival time, dose: 600.0 mg/kg/injection, schedule: Q01DX001 (ip), vehicle: other)?
Answer: 5 of 10

Question: And the survivor count (T/C endpoint: mean survival time, dose: 600.0 mg/kg/injection, schedule: Q03DX Z (ip), vehicle: carboxymethylcellulose (CMC))?
Answer: 0 of 6

Question: And the T/C (T/C endpoint: mean survival time, dose: 600.0 mg/kg/injection, schedule: Q07DX003 (ip), vehicle: other)?
Answer: 148 % of control

Question: What about the T/C (T/C endpoint: mean survival time, dose: 625.0 mg/kg/injection, schedule: Q01DX001 (ip), vehicle: carboxymethylcellulose (CMC)) of the same molecule?
Answer: 136 % of control

Question: And the T/C (T/C endpoint: mean survival time, dose: 672.0 mg/kg/injection, schedule: Q01DX001 (ip), vehicle: carboxymethylcellulose (CMC), evaluated on day 5)?
Answer: 120 [8 of 9 alive] and 147 % of control

Question: And the T/C (T/C endpoint: mean survival time, dose: 672.0 mg/kg/injection, schedule: Q01DX001 (ip), vehicle: carboxymethylcellulose (CMC), evaluated on day 45)?
Answer: 123, 124, 135 [7 of 10 alive], 147 % of control

Question: What about the survivor count (T/C endpoint: mean survival time, dose: 672.0 mg/kg/injection, schedule: Q01DX001 (ip), vehicle: carboxymethylcellulose (CMC)) of the same molecule?
Answer: 9 of 10

Question: And the T/C (T/C endpoint: mean survival time, dose: 700.0 mg/kg/injection, schedule: Q01DX001 (ip), vehicle: carboxymethylcellulose (CMC))?
Answer: 139 % of control

Question: What about the survivor count (T/C endpoint: mean survival time, dose: 700.0 mg/kg/injection, schedule: Q07DX Z (ip), vehicle: carboxymethylcellulose (CMC)) of the same molecule?
Answer: 1 of 6

Question: And the survivor count (T/C endpoint: mean survival time, dose: 720.0 mg/kg/injection, schedule: Q01DX001 (ip), vehicle: carboxymethylcellulose (CMC))?
Answer: 3 of 6

Question: What about the survivor count (T/C endpoint: mean survival time, dose: 800.0 mg/kg/injection, schedule: Q01DX001 (ip), vehicle: carboxymethylcellulose (CMC)) of the same molecule?
Answer: 0 of 10

Question: What about the T/C (T/C endpoint: mean survival time, dose: 800.0 mg/kg/injection, schedule: Q01DX001 (ip), vehicle: steroid suspending solution, evaluated on day 5) of the same molecule?
Answer: 127 % of control

Question: What about the T/C (T/C endpoint: mean survival time, dose: 800.0 mg/kg/injection, schedule: Q01DX001 (ip), vehicle: steroid suspending solution, evaluated on day 19) of the same molecule?
Answer: 127 % of control

Question: And the survivor count (T/C endpoint: mean survival time, dose: 800.0 mg/kg/injection, schedule: Q04DX003 (ip), vehicle: Klucel (hydroxypropylcellulose) (HPC))?
Answer: 1 of 6

Question: What about the survivor count (T/C endpoint: mean survival time, dose: 900.0 mg/kg/injection, schedule: Q01DX001 (ip), vehicle: carboxymethylcellulose (CMC)) of the same molecule?
Answer: 5 of 10

Question: What about the survivor count (T/C endpoint: mean survival time, dose: 900.0 mg/kg/injection, schedule: Q01DX001 (ip), vehicle: other) of the same molecule?
Answer: 4 of 10

Question: And the survivor count (T/C endpoint: mean survival time, dose: 928.0 mg/kg/injection, schedule: Q04DX002 (ip), vehicle: carboxymethylcellulose (CMC))?
Answer: 1 of 3

Question: And the T/C (T/C endpoint: mean survival time, dose: 1000.0 mg/kg/injection, schedule: Q01DX001 (ip), vehicle: carboxymethylcellulose (CMC))?
Answer: 138 % of control

Question: What about the T/C [2] of the same molecule?
Answer: 134 [6 of 8 alive] and 165 % of control

Question: And the survivor count [2]?
Answer: 5 of 8 and 8 of 10

Question: And the survivor count (T/C endpoint: mean survival time, dose: 1080.0 mg/kg/injection, schedule: Q01DX001 (ip), vehicle: carboxymethylcellulose (CMC))?
Answer: 2 of 6

Question: And the survivor count (T/C endpoint: mean survival time, dose: 1200.0 mg/kg/injection, schedule: Q03DX Z (ip), vehicle: carboxymethylcellulose (CMC))?
Answer: 0 of 6

Question: What about the survivor count (T/C endpoint: mean survival time, dose: 1350.0 mg/kg/injection, schedule: Q01DX001 (ip), vehicle: carboxymethylcellulose (CMC)) of the same molecule?
Answer: 3 of 10

Question: What about the survivor count (T/C endpoint: mean survival time, dose: 1350.0 mg/kg/injection, schedule: Q01DX001 (ip), vehicle: other) of the same molecule?
Answer: 1 of 9

Question: What about the survivor count (T/C endpoint: mean survival time, dose: 1400.0 mg/kg/injection, schedule: Q07DX Z (ip), vehicle: carboxymethylcellulose (CMC)) of the same molecule?
Answer: 0 of 6

Question: What about the survivor count (T/C endpoint: mean survival time, dose: 1600.0 mg/kg/injection, schedule: Q01DX Z (oral), vehicle: carboxymethylcellulose (CMC)) of the same molecule?
Answer: 4 of 6

Question: What about the survivor count (T/C endpoint: mean survival time, dose: 1620.0 mg/kg/injection, schedule: Q01DX001 (ip), vehicle: carboxymethylcellulose (CMC)) of the same molecule?
Answer: 1 of 6

Question: And the survivor count (T/C endpoint: mean survival time, dose: 2000.0 mg/kg/injection, schedule: Q01DX001 (ip), vehicle: carboxymethylcellulose (CMC))?
Answer: 6 of 6

Question: What about the T/C (T/C endpoint: median survival time, dose: 25.0 mg/kg/injection, schedule: Q01DX017 (ip), vehicle: steroid suspending solution) of the same molecule?
Answer: 131 % of control

Question: What about the T/C (T/C endpoint: median survival time, dose: 39.0 mg/kg/injection, schedule: Q01DX033 (ip), vehicle: other) of the same molecule?
Answer: 125 % of control
